{"source": "patent US8426631B2", "about": "“Fungicidal compounds, method for the production thereof, and use thereof to combat damaging fungi, and agents comprising the same” (BASF SE, priority 2007, dated 2013)", "key": {"Puccinia recondita [1]": {"test_system": "Puccinia recondita", "assay": "Greenhouse test, brown rust of wheat caused by Puccinia recondita, curative application", "assay_type": "in vivo", "settings": "600 ppm; wheat seedlings, curative spray the day after inoculation; untreated plants 80 to 90% infected"}, "Botrytis cinerea [2]": {"test_system": "Botrytis cinerea", "assay": "Microtiter test, activity against the gray mold pathogen Botrytis cinerea", "assay_type": "cell-based", "settings": "125 ppm; growth relative to active compound-free control (100%); 405 nm, day 7 after inoculation"}, "Botrytis cinerea [3]": {"test_system": "Botrytis cinerea", "assay": "Greenhouse test, gray mold on bell pepper leaves caused by Botrytis cinerea, 7 days protective application", "assay_type": "in vivo", "settings": "250 ppm; bell pepper seedlings, inoculated 7 days after spraying; read after 5 days; untreated 80 to 90% infected"}, "[4]": {"test_system": "Erysiphe [syn. Blumeria] graminis f. sp. tritici", "assay": "Greenhouse test, mildew of wheat caused by Erysiphe [syn. Blumeria] graminis f. sp. tritici", "assay_type": "in vivo", "settings": "600 ppm; wheat seedlings, protective; read after 7 days; untreated 80 to 90% infected"}, "Puccinia recondita [5]": {"test_system": "Puccinia recondita", "assay": "Greenhouse test, brown rust of wheat caused by Puccinia recondita, protective application", "assay_type": "in vivo", "settings": "600 ppm; wheat seedlings, protective spray 1 day before inoculation; untreated plants 80 to 90% infected"}, "Pyricularia oryzae": {"test_system": "Pyricularia oryzae", "assay_type": "cell-based", "settings": "125 ppm; growth relative to active compound-free control (100%); 405 nm, day 7 after inoculation"}, "Phakopsora pachyrhizi": {"test_system": "Phakopsora pachyrhizi", "assay": "Greenhouse test, curative activity against soybean rust caused by Phakopsora pachyrhizi", "assay_type": "in vivo", "settings": "600 ppm, soybean seedlings, read after 14 days, untreated 80 to 90% infected"}, "Botrytis cinerea [6]": {"test_system": "Botrytis cinerea", "assay": "Greenhouse test, gray mold on bell pepper leaves caused by Botrytis cinerea, 1 day protective application", "assay_type": "in vivo", "settings": "600 ppm; bell pepper seedlings, inoculated 1 day after spraying; read after 5 days; untreated 80 to 90% infected"}, "Septoria tritici [7]": {"test_system": "Septoria tritici", "assay": "Greenhouse test, curative activity against Septoria leaf spot of wheat caused by Septoria tritici", "assay_type": "in vivo", "settings": "250 ppm; wheat seedlings, curative spray six days after inoculation; read after 21 days; untreated 80 to 90% infected"}, "[8]": {"test_system": "Pyrenophora [syn. Drechslera] teres", "assay": "Greenhouse test, net blotch of barley caused by Pyrenophora teres, 1 day protective application", "assay_type": "in vivo", "settings": "barley seedlings, read after 6 days, untreated 80 to 90% infected"}, "Phytophthora infestans": {"test_system": "Phytophthora infestans", "assay_type": "cell-based", "settings": "125 ppm; growth relative to active compound-free control (100%); 405 nm, day 7 after inoculation"}, "Septoria tritici [9]": {"test_system": "Septoria tritici", "assay": "Microtiter test, activity against the Septoria leaf spot pathogen Septoria tritici", "assay_type": "cell-based", "settings": "125 ppm; growth relative to active compound-free control (100%); 405 nm, day 7 after inoculation"}}, "note": "Some of these results come from one statement about several compounds together."}
{"smiles": "CCN(C)C=Nc1cc(C)c(OCC(C)=NOC/C=C/Cl)cc1C", "note": "[I-66]", "values": [{"measurement": "infection of the leaf area", "setting": "Puccinia recondita [1]", "result": "at most 15%"}, {"measurement": "relative growth of the pathogen", "setting": "Botrytis cinerea [2]", "result": "at most 10%"}, {"measurement": "infection (fungal infection on the leaves)", "setting": "Botrytis cinerea [3]", "result": "at most 15%"}, {"measurement": "infection of the entire leaf area", "setting": "[4]", "result": "at most 15%"}, {"measurement": "infection (rust fungus development on the leaves)", "setting": "Puccinia recondita [5]", "result": "at most 15%"}, {"measurement": "relative growth of the pathogen", "setting": "Pyricularia oryzae", "result": "at most 10%"}, {"measurement": "infection (rust fungus development on the leaves)", "setting": "Phakopsora pachyrhizi", "result": "at most 15%"}]}
{"smiles": "CCN(C)C=Nc1cc(C)c(OCC(COc2cc(C(F)(F)F)ccc2F)=NOC)cc1C", "note": "[I-121]", "values": [{"measurement": "infection (fungal infection on the leaves)", "setting": "Botrytis cinerea [6]", "result": "at most 15%"}, {"measurement": "infection of the leaf area", "setting": "Puccinia recondita [1]", "result": "at most 15%"}, {"measurement": "infection of the entire leaf area", "setting": "[4]", "result": "at most 15%"}, {"measurement": "infection (rust fungus development on the leaves)", "setting": "Puccinia recondita [5]", "result": "at most 15%"}, {"measurement": "infection of the entire leaf area", "setting": "Septoria tritici [7]", "result": "at most 15%"}, {"measurement": "infection of the entire leaf area", "setting": "[8]; 250 ppm", "result": "at most 15%"}, {"measurement": "infection (rust fungus development on the leaves)", "setting": "Phakopsora pachyrhizi", "result": "at most 15%"}]}
{"smiles": "CCN(C)C=Nc1cc(C)c(OCC(COc2cc(Cl)c(Cl)cc2Cl)=NOC)cc1C", "note": "[I-131]", "values": [{"measurement": "infection (fungal infection on the leaves)", "setting": "Botrytis cinerea [6]", "result": "at most 15%"}, {"measurement": "infection of the leaf area", "setting": "Puccinia recondita [1]", "result": "at most 15%"}, {"measurement": "infection of the entire leaf area", "setting": "[4]", "result": "at most 15%"}, {"measurement": "infection (rust fungus development on the leaves)", "setting": "Puccinia recondita [5]", "result": "at most 15%"}, {"measurement": "infection of the entire leaf area", "setting": "Septoria tritici [7]", "result": "at most 15%"}, {"measurement": "infection of the entire leaf area", "setting": "[8]; 600 ppm", "result": "at most 15%"}, {"measurement": "infection (rust fungus development on the leaves)", "setting": "Phakopsora pachyrhizi", "result": "at most 15%"}]}
{"smiles": "CCN(C)C=Nc1cc(C)c(OCC(COc2cccc(Br)c2)=NOC)cc1C", "note": "[I-7]", "values": [{"measurement": "infection of the leaf area", "setting": "Puccinia recondita [1]", "result": "at most 15%"}, {"measurement": "relative growth of the pathogen", "setting": "Botrytis cinerea [2]", "result": "at most 10%"}, {"measurement": "relative growth of the pathogen", "setting": "Phytophthora infestans", "result": "at most 10%"}, {"measurement": "infection (rust fungus development on the leaves)", "setting": "Puccinia recondita [5]", "result": "at most 15%"}, {"measurement": "relative growth of the pathogen", "setting": "Septoria tritici [9]", "result": "at most 10%"}, {"measurement": "relative growth of the pathogen", "setting": "Pyricularia oryzae", "result": "at most 10%"}]}
{"smiles": "CCN(C)C=Nc1cc(C)c(OCC(COc2ccc(Cl)cc2-c2ccccc2)=NOC)cc1C", "note": "[I-142]", "values": [{"measurement": "infection (fungal infection on the leaves)", "setting": "Botrytis cinerea [6]", "result": "at most 15%"}, {"measurement": "infection of the leaf area", "setting": "Puccinia recondita [1]", "result": "at most 15%"}, {"measurement": "infection of the entire leaf area", "setting": "[4]", "result": "at most 15%"}, {"measurement": "infection (rust fungus development on the leaves)", "setting": "Puccinia recondita [5]", "result": "at most 15%"}, {"measurement": "infection of the entire leaf area", "setting": "Septoria tritici [7]", "result": "at most 15%"}, {"measurement": "infection of the entire leaf area", "setting": "[8]; 250 ppm", "result": "at most 15%"}]}
{"smiles": "CCN(C)C=Nc1cc(C)c(OCC(COc2ccc(F)c(F)c2)=NOC)cc1C", "note": "[I-149]", "values": [{"measurement": "infection of the leaf area", "setting": "Puccinia recondita [1]", "result": "at most 15%"}, {"measurement": "infection of the entire leaf area", "setting": "[4]", "result": "at most 15%"}, {"measurement": "infection (rust fungus development on the leaves)", "setting": "Puccinia recondita [5]", "result": "at most 15%"}, {"measurement": "infection of the entire leaf area", "setting": "Septoria tritici [7]", "result": "at most 15%"}, {"measurement": "infection of the entire leaf area", "setting": "[8]; 250 ppm", "result": "at most 15%"}, {"measurement": "infection of the entire leaf area", "setting": "[8]; 600 ppm", "result": "at most 15%"}, {"measurement": "infection (rust fungus development on the leaves)", "setting": "Phakopsora pachyrhizi", "result": "at most 15%"}]}
{"smiles": "CCN(C)C=Nc1cc(C)c(OCC(COc2cc(OC)c(Cl)cc2Cl)=NOC)cc1C", "note": "[I-146]", "values": [{"measurement": "infection (fungal infection on the leaves)", "setting": "Botrytis cinerea [6]", "result": "at most 15%"}, {"measurement": "infection of the leaf area", "setting": "Puccinia recondita [1]", "result": "at most 15%"}, {"measurement": "infection of the entire leaf area", "setting": "[4]", "result": "at most 15%"}, {"measurement": "infection (rust fungus development on the leaves)", "setting": "Puccinia recondita [5]", "result": "at most 15%"}, {"measurement": "infection of the entire leaf area", "setting": "[8]; 600 ppm", "result": "at most 15%"}, {"measurement": "infection (rust fungus development on the leaves)", "setting": "Phakopsora pachyrhizi", "result": "at most 15%"}]}
{"smiles": "CCN(C)C=Nc1cc(C)c(OC(C)C(=NOC)c2ccc(Cl)c(Cl)c2)cc1C", "note": "(centres unmarked) [I-97, N′-(4-{2-(3,4-dichlorophenyl)-2-[methoxyimino]-1-methyl-ethoxy}-2,5-dimethylphenyl)-N-ethyl-N-methylformamidine]", "values": [{"measurement": "relative growth of the pathogen", "setting": "Phytophthora infestans", "result": "at most 10%"}, {"measurement": "relative growth of the pathogen", "setting": "Pyricularia oryzae", "result": "at most 10%"}]}
{"smiles": "CCN(C)C=Nc1cc(C)c(OCC(COc2cccc(C(F)(F)F)c2)=NOC)cc1C", "note": "[I-10]", "values": [{"measurement": "infection (fungal infection on the leaves)", "setting": "Botrytis cinerea [6]", "result": "at most 15%"}, {"measurement": "infection of the leaf area", "setting": "Puccinia recondita [1]", "result": "at most 15%"}, {"measurement": "relative growth of the pathogen", "setting": "Botrytis cinerea [2]", "result": "at most 10%"}, {"measurement": "relative growth of the pathogen", "setting": "Phytophthora infestans", "result": "at most 10%"}, {"measurement": "infection of the entire leaf area", "setting": "[4]", "result": "at most 15%"}, {"measurement": "infection (rust fungus development on the leaves)", "setting": "Puccinia recondita [5]", "result": "at most 15%"}, {"measurement": "relative growth of the pathogen", "setting": "Septoria tritici [9]", "result": "at most 10%"}, {"measurement": "relative growth of the pathogen", "setting": "Pyricularia oryzae", "result": "at most 10%"}, {"measurement": "infection of the entire leaf area", "setting": "[8]; 250 ppm", "result": "at most 15%"}, {"measurement": "infection of the entire leaf area", "setting": "[8]; 600 ppm", "result": "at most 15%"}, {"measurement": "infection (rust fungus development on the leaves)", "setting": "Phakopsora pachyrhizi", "result": "at most 15%"}]}
{"smiles": "CCN(C)C=Nc1cc(C)c(OCC(COc2cc(C)c(Cl)cc2C)=NOC)cc1C", "note": "[I-148]", "values": [{"measurement": "infection (fungal infection on the leaves)", "setting": "Botrytis cinerea [6]", "result": "at most 15%"}, {"measurement": "infection of the leaf area", "setting": "Puccinia recondita [1]", "result": "at most 15%"}, {"measurement": "infection of the entire leaf area", "setting": "[4]", "result": "at most 15%"}, {"measurement": "infection (rust fungus development on the leaves)", "setting": "Puccinia recondita [5]", "result": "at most 15%"}, {"measurement": "infection of the entire leaf area", "setting": "Septoria tritici [7]", "result": "at most 15%"}, {"measurement": "infection (rust fungus development on the leaves)", "setting": "Phakopsora pachyrhizi", "result": "at most 15%"}]}
{"smiles": "CCN(C)C=Nc1cc(C)c(OCC(COc2ccc(Cl)c(Cl)c2)=NOC)cc1C", "note": "[I-9, N′-(4-{3-(3,4-dichlorophenoxy)-2-[methoxyimino]propoxy}-2,5-dimethylphenyl)-N-ethyl-N-methylformamidine]", "values": [{"measurement": "relative growth of the pathogen", "setting": "Phytophthora infestans", "result": "at most 10%"}, {"measurement": "relative growth of the pathogen", "setting": "Pyricularia oryzae", "result": "at most 10%"}]}
{"smiles": "CCN(C)C=Nc1cc(C)c(OCC(COc2ccc(Cl)c(C)c2)=NOC)cc1C", "note": "[I-144]", "values": [{"measurement": "infection (fungal infection on the leaves)", "setting": "Botrytis cinerea [6]", "result": "at most 15%"}, {"measurement": "infection of the leaf area", "setting": "Puccinia recondita [1]", "result": "at most 15%"}, {"measurement": "infection of the entire leaf area", "setting": "[4]", "result": "at most 15%"}, {"measurement": "infection (rust fungus development on the leaves)", "setting": "Puccinia recondita [5]", "result": "at most 15%"}, {"measurement": "infection of the entire leaf area", "setting": "Septoria tritici [7]", "result": "at most 15%"}, {"measurement": "infection of the entire leaf area", "setting": "[8]; 600 ppm", "result": "at most 15%"}, {"measurement": "infection (rust fungus development on the leaves)", "setting": "Phakopsora pachyrhizi", "result": "at most 15%"}]}
